Source: PubChem BioAssay AID1259405 (NCATS, 2018)
The deposit covers about 50,000 reagents; below is an unselected part. In the full data, about 4,000 (8%) were called active. 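Mouse siRNA library applied to hamster cells; one well for each siRNA.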 Reagents against one gene are numbered here.

Screen: 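Knock-downs that lift recombinant protein yield in hamster ovary cells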 (primary screen)
Cell system: Chinese hamster CHO-K1 ovary cells with stable secreted eGFP expression
Knock-down reagent: single siRNA against mouse genes, 0.8 pmol siRNA per well (2 µl of 400 nM stock)
Duration: 3 days
Read-out: 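Percent of the per-plate non-targeting control median for intracellular GFP per well by laser scanning cytometry and for cell viability by ATP luminescence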
Direction: GFP, % of control: higher = more GFP per well, higher productivity; viability (ATP), % of control: higher = more viable cells (more ATP)
Hit rule: 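Called active when intracellular GFP, relative to negative control, is at or above 120%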

With Csrnp3 #1, how do the results read?
GFP, % of control: 95.9; viability (ATP), % of control: 68.7; Outcome: inactive

What is on record for Csrnp3 #2?
GFP, % of control: 91.4; viability (ATP), % of control: 91.4; Outcome: inactive

Which result is listed for Csrnp3 #3?
GFP, % of control: 86.3; viability (ATP), % of control: 77.4; Outcome: inactive

With Cwc25 #1, what was measured?
GFP, % of control: 68.4; viability (ATP), % of control: 88.8; Outcome: inactive

For Cwc25 #2, how do the results read?
GFP, % of control: 58.7; viability (ATP), % of control: 83.3; Outcome: inactive

Which result is listed for Cwc25 #3?
GFP, % of control: 115; viability (ATP), % of control: 68.4; Outcome: inactive

Which result is listed for Or4c110 #1?
GFP, % of control: 83.9; viability (ATP), % of control: 75; Outcome: inactive

With Or4c110 #2, what was measured?
GFP, % of control: 97.5; viability (ATP), % of control: 51; Outcome: inactive

With Or4c110 #3, what was measured?
GFP, % of control: 65.3; viability (ATP), % of control: 105; Outcome: inactive

Which result is listed for Rgs2 #1?
GFP, % of control: 59.1; viability (ATP), % of control: 66.4; Outcome: inactive

Which result is listed for Rgs2 #2?
GFP, % of control: 51.7; viability (ATP), % of control: 64.3; Outcome: inactive

How did the screen score Rgs2 #3?
GFP, % of control: 50.7; viability (ATP), % of control: 50.9; Outcome: inactive

What is on record for Prr13 #1?
GFP, % of control: 66.2; viability (ATP), % of control: 68.6; Outcome: inactive

How did the screen score Prr13 #2?
GFP, % of control: 57.2; viability (ATP), % of control: 75.4; Outcome: inactive

What is on record for Prr13 #3?
GFP, % of control: 82.4; viability (ATP), % of control: 78.7; Outcome: inactive

For Pkmyt1, how do the results read?
GFP, % of control: 68.9; viability (ATP), % of control: 74.1; Outcome: inactive

For Cyp4f14 #1, what was measured?
GFP, % of control: 80; viability (ATP), % of control: 82.9; Outcome: inactive

For Cyp4f14 #2, how do the results read?
GFP, % of control: 110; viability (ATP), % of control: 93.7; Outcome: inactive

What is on record for Cyp4f14 #3?
GFP, % of control: 94; viability (ATP), % of control: 81.9; Outcome: inactive

What did the screen give for Cox7a2 #1?
GFP, % of control: 161; viability (ATP), % of control: 126; Outcome: active

What is on record for Cox7a2 #2?
GFP, % of control: 88.1; viability (ATP), % of control: 63.7; Outcome: inactive

For Cox7a2 #3, what was measured?
GFP, % of control: 81.7; viability (ATP), % of control: 71.6; Outcome: inactive

For Alg9 #1, what was measured?
GFP, % of control: 135; viability (ATP), % of control: 90.4; Outcome: active

With Alg9 #2, what was measured?
GFP, % of control: 111; viability (ATP), % of control: 107; Outcome: inactive

For Alg9 #3, how do the results read?
GFP, % of control: 98.3; viability (ATP), % of control: 98; Outcome: inactive

What did the screen give for Thap7 #1?
GFP, % of control: 86.9; viability (ATP), % of control: 123; Outcome: inactive

With Thap7 #2, what was measured?
GFP, % of control: 61.1; viability (ATP), % of control: 78; Outcome: inactive

How did the screen score Thap7 #3?
GFP, % of control: 48.8; viability (ATP), % of control: 55.7; Outcome: inactive

For Crispld2 #1, what does the deposit list?
GFP, % of control: 107; viability (ATP), % of control: 99.2; Outcome: inactive

What is on record for Crispld2 #2?
GFP, % of control: 78.7; viability (ATP), % of control: 52.7; Outcome: inactive

With Crispld2 #3, how do the results read?
GFP, % of control: 65.3; viability (ATP), % of control: 69.9; Outcome: inactive

Which result is listed for Pskh1?
GFP, % of control: 85.3; viability (ATP), % of control: 78.9; Outcome: inactive

For Uri1 #1, what does the deposit list?
GFP, % of control: 95.8; viability (ATP), % of control: 73; Outcome: inactive

For Uri1 #2, how do the results read?
GFP, % of control: 64.2; viability (ATP), % of control: 69.7; Outcome: inactive

With Uri1 #3, what was measured?
GFP, % of control: 104; viability (ATP), % of control: 95.9; Outcome: inactive

How did the screen score Apon #1?
GFP, % of control: 81.5; viability (ATP), % of control: 80.3; Outcome: inactive

For Apon #2, what does the deposit list?
GFP, % of control: 55.4; viability (ATP), % of control: 57; Outcome: inactive

For Apon #3, what was measured?
GFP, % of control: 88.3; viability (ATP), % of control: 83.9; Outcome: inactive

With Tcerg1l #1, what does the deposit list?
GFP, % of control: 100; viability (ATP), % of control: 118; Outcome: inactive

Which result is listed for Tcerg1l #2?
GFP, % of control: 76.7; viability (ATP), % of control: 109; Outcome: inactive

For Tcerg1l #3, what was measured?
GFP, % of control: 80; viability (ATP), % of control: 92; Outcome: inactive

Records listed so far whose target name begins with R or r (3):
Rgs2 #1: GFP, % of control = 59.1; viability (ATP), % of control = 66.4; Outcome = inactive
Rgs2 #2: GFP, % of control = 51.7; viability (ATP), % of control = 64.3; Outcome = inactive
Rgs2 #3: GFP, % of control = 50.7; viability (ATP), % of control = 50.9; Outcome = inactive
